In publication PMC4489885:
These are yes or no findings as the source states them, for the method shown. Binding seen in cells or lysates may run through a third protein. Some results given as binding are weak or reduced against the parent protein; the word gives no strength.

By UniProt entry, the sequences of proteins in these tests, tags left out.
UniProt Q9UN81: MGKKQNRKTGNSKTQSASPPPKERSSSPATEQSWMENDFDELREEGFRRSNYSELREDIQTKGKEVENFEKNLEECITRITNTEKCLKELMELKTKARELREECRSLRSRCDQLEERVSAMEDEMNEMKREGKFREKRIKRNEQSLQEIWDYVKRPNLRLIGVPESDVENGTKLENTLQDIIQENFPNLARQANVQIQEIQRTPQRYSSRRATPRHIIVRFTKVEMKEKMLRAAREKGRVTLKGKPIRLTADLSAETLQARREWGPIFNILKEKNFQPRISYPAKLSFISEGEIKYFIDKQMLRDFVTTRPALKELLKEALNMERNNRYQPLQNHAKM
UniProt Q9Y3Z3: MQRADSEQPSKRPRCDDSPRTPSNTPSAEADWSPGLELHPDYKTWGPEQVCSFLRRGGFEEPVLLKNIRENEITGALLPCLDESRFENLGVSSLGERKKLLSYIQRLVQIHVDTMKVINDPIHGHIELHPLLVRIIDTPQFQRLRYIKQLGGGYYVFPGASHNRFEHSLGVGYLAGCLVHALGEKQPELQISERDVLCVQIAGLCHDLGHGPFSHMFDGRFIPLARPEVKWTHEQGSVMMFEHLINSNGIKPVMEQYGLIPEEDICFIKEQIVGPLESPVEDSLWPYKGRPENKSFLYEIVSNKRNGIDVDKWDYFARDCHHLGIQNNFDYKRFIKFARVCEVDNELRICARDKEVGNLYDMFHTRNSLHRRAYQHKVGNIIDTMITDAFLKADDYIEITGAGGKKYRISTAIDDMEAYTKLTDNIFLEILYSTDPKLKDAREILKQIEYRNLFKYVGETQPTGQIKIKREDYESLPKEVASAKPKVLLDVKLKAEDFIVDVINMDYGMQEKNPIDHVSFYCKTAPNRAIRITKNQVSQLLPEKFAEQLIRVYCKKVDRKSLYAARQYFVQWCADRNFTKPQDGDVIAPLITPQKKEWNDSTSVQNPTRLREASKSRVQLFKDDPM
UniProt Q13283: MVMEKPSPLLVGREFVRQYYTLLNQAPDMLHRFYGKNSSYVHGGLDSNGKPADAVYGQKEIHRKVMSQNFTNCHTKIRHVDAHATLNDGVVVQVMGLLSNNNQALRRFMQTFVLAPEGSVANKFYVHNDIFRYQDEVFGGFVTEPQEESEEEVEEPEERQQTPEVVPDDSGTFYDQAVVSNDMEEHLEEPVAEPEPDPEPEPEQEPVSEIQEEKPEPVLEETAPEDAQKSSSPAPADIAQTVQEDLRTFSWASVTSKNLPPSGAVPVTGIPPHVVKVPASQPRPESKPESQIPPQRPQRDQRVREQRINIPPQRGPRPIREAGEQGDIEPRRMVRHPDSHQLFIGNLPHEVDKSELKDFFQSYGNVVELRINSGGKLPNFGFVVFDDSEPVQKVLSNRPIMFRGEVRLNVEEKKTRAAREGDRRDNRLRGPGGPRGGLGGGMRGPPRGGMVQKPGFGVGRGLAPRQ

Columns and labels:
[1] = molecular target: Flag-ORF1p (LINE-1 ORF1 protein) (human) (UniProt Q9UN81); experiment: co-IP; HeLa co-transfected with Flag-ORF1p and CMV-L1-neoRT; lysis and washes in RIPA buffer; anti-Flag M2 precipitation, 4 h on ice; with or without RNase A (100 ug/mL, 37°C, 30 min); western blot for ORF1p and G3BP1
[2] = molecular target: Myc-SAMHD1 (human) (human) (UniProt Q9Y3Z3); experiment: co-IP; HeLa co-transfected with Myc-SAMHD1 and ORF1-Flag; Myc-SAMHD1 precipitated with anti-Myc antibody; western blot for ORF1
[3] = molecular target: G3BP1 (endogenous) (human (endogenous in HeLa)) (UniProt Q13283); experiment: co-IP; HeLa co-transfected with CMV-L1-neoRT and with or without wild type Myc-SAMHD1 or SAMHD1-H233A; endogenous G3BP1 precipitated with anti-G3BP1 antibody, anti-rabbit IgG as control; western blot for ORF1
Myc-G3BP1 = Myc-G3BP1 (UniProt Q13283); experiment: co-IP; HeLa co-transfected with Myc-G3BP1 and CMV-L1-neoRT; RIPA buffer; anti-Myc antibody and protein G-agarose; with or without RNase A; western blot for ORF1p

Substance: G3BP1 (endogenous) (from UniProt Q13283 1-466)
- binding [1]: binds

Substance: Flag-ORF1p (LINE-1 ORF1 protein) (from UniProt Q9UN81 1-338)
- binding [2]: no binding

Substance: LINE-1 ORF1p expressed from CMV-L1-neoRT (from UniProt Q9UN81 1-338)
- binding [3]: binds
- binding (Myc-G3BP1): binds
